This note sets out measurements from publication PMC9379397.

The chains behind the UniProt entries cited, without tags or fusion partners. Residues count along the entry.
UniProt P11021, residues 19-654: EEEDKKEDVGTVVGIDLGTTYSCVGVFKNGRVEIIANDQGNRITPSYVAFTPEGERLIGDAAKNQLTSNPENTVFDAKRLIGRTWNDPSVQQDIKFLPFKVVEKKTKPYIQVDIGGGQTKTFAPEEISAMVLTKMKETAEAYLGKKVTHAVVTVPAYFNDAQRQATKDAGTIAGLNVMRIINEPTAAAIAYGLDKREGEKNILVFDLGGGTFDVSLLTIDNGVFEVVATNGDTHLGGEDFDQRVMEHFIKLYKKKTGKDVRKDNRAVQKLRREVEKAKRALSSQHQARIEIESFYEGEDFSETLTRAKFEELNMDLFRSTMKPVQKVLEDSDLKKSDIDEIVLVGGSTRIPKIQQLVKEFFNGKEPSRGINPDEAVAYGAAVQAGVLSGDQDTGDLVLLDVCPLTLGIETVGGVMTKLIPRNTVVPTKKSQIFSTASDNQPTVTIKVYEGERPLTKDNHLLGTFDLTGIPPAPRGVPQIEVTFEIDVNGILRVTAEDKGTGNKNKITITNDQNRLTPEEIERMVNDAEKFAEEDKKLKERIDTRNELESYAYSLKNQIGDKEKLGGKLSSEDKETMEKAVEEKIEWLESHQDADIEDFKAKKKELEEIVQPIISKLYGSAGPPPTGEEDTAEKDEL

No constants are given. Whether binding was seen depends on the method and setting. Binding seen in cells or lysates may run through a third protein. Some entries that bind do so weakly or less than the wild type.

In this assay the target is GRP78/Bip (Glucose-Regulated Protein, 78kDa; binding immunoglobulin protein) (human (endogenous in KYSE410 and KYSE450)) (UniProt P11021). The assay is described as follows: co-IP; endogenous proteins in ESCC cell lysates (KYSE410, KYSE450; also Sh-TMTC3 or Sh-NC cells); IP with GRP78/Bip or TMTC3 antibody, Protein A/G beads, 4 C overnight; IP lysis buffer pH 8.0 Tris-HCl 20 mM, NaCl 137 mM, NP40 1%, EDTA 2 mM; Western blot.

B1: Transmembrane and tetratricopeptide repeat (TPR) containing protein 3 (TMTC3) (protein, UniProt Q6ZXV5 1-915)
chain: MANINLKEITLIVGVVTACYWNSLFCGFVFDDVSAILDNKDLHPSTPLKTLFQNDFWGTPMSEERSHKSYRPLTVLTFRLNYLLSELKPMSYHLLNMIFHAVVSVIFLKVCKLFLDNKSSVIASLLFAVHPIHTEAVTGVVGRAELLSSIFFLAAFLSYTRSKGPDNSIIWTPIALTVFLVAVATLCKEQGITVVGICCVYEVFIAQGYTLPLLCTTAGQFLRGKGSIPFSMLQTLVKLIVLMFSTLLLVVIRVQVIQSQLPVFTRFDNPAAVSPTPTRQLTFNYLLPVNAWLLLNPSELCCDWTMGTIPLIESLLDIRNLATFTFFCFLGMLGVFSIRYSGDSSKTVLMALCLMALPFIPASNLFFPVGFVVAERVLYVPSMGFCILVAHGWQKISTKSVFKKLSWICLSMVILTHSLKTFHRNWDWESEYTLFMSALKVNKNNAKLWNNVGHALENEKNFERALKYFLQATHVQPDDIGAHMNVGRTYKNLNRTKEAEESYMMAKSLMPQIIPGKKYAARIAPNHLNVYINLANLIRANESRLEEADQLYRQAISMRPDFKQAYISRGELLLKMNKPLKAKEAYLKALELDRNNADLWYNLAIVHIELKEPNEALKKNFNRALELNPKHKLALFNSAIVMQESGEVKLRPEARKRLLSYINEEPLDANGYFNLGMLAMDDKKDNEAEIWMKKAIKLQADFRSALFNLALLYSQTAKELKALPILEELLRYYPDHIKGLILKGDILMNQKKDILGAKKCFERILEMDPSNVQGKHNLCVVYFEEKDLLKAERCLLETLALAPHEEYIQRHLNIVRDKISSSSFIEPIFPTSKISSVEGKKIPTESVKEIRGESRQTQIVKTSDNKSQSKSNKQLGKNGDEETPHKTTKDIKEIEKKRVAALKRLEEIERILNGE
In the case of B1, the binding result was “binds”.
